{
  "source": "patent US20080249072A1",
  "about": "“Use of Low Dose Chemically Modified Tetracylines to Reduce Inflammatory Mediators” (priority 2005, published 2008)",
  "system": "Interleukin-6 (IL-6)",
  "experiment": "IL-6 production by human monocytes/macrophages stimulated by CRP/Oxid. LDL complex (ELISA)",
  "type": "cell-based",
  "settings": "18 hour incubation",
  "description": "Experiments were conducted to compare the efficacy of two tetracycline compounds, doxycycline and CMT-3, on reducing the production of inflammatory mediators, TNF-α, IL-6 and MCP-1 produced by monocytes/macrophages. Doxycycline is a well known tetracycline antibiotic. CMT-3 is a non-antibacterial 4-dedimethylamino derivative of sancycline. See above. The experiments utilized a cell culture stimulated by biologic factors that cause inflammation, such as the inflammation seen in, for example, coronary and cerebro-vascular disease. Units of human blood were obtained and peripheral blood monocytes were separated by Ficoll-Hypaque gradient centrifugation. Viable human monocytes/macrophages were incubated in cell culture under standard sterile conditions on plastic in RPMI media at 37° C. for 18 hours. The monocytes/macrophages were incubated under the following experimental conditions: • (i) cells alone; • (ii) cells stimulated by c-reactive protein (CRP)/Oxidized LDL cholesterol complex (CRP/Oxid. LDL complex), no tetracycline present; • (iii) cells stimulated by CRP/Oxid. LDL complex with doxycycline at concentrations of 0.7 μg/ml, 5.0 μg/ml and 10.0 μg/ml; and. • (iv) cells stimulated by CRP/Oxid. LDL complex with CMT-3 at concentrations of 0.5 μg/ml, 1.5 μg/ml and 5.0 μg/ml. CRP/Oxid. LDL complex stimulates monocytes/macrophages to secrete excessive levels of cytokines (e.g. IL-1, IL-6, TNF-α, and MCP-1). Excessive levels of cytokines result in the rupture of atheroscleromatus plaques lining coronary and cerebral arteries causing thrombosis, heart attack and stroke. At the end of an 18 hour incubation, the conditioned media were collected and analyzed by ELISA for inflammatory mediators IL-6, TNF-α and MCP-1. The results are described in examples 1-3.",
  "note": "For at least one compound, name, drawing or mass did not settle the structure.",
  "data": [
    {"smiles": "C[C@H]1c2cccc(O)c2C(=O)C2=C(O)[C@]3(O)C(=O)C(C(N)=O)=C(O)[C@@H](N(C)C)[C@@H]3[C@@H](O)[C@@H]21", "note": "[doxycycline]", "values": [
      {"measurement": "effect on IL-6 production", "setting": "0.7 μg/ml", "result": "little or no effect"},
      {"measurement": "effect on IL-6 production", "setting": "5.0 μg/ml", "result": "no further effect"},
      {"measurement": "effect on IL-6 production", "setting": "10.0 μg/ml", "result": "reduced to essentially normal levels"}
    ]}
  ]
}
